Measured data: PubChem BioAssay AID1259405 (NCATS, 2018)
Here is an unselected part of about 50,000 reagents. About 4,000 of all reagents (8%) count as active. 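Mouse siRNA library applied to hamster cells; one well for each siRNA.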 The numbers tell different reagents against one gene apart. Reagent sequences are not shown.

- Screen: 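Knock-downs that lift recombinant protein yield in hamster ovary cells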 (primary screen)
- Cell system: Chinese hamster CHO-K1 ovary cells with stable secreted eGFP expression
- Reagent: single siRNA against mouse genes, 0.8 pmol siRNA per well (2 µl of 400 nM stock)
- Timing: 3 days
- Detection: 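Per-well intracellular GFP measured by laser scanning cytometry, plus viability from ATP luminescence, each relative to plate median of non-targeting control wells, in %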
- Direction: GFP, % of control: higher = more GFP per well, higher productivity; viability (ATP), % of control: higher = more viable cells (more ATP)
- Hit rule: 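a knock-down is called active if GFP reaches 120% or more of non-targeting control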

Batf3 (GeneID 381319) #1
- GFP, % of control: 94.3
- viability (ATP), % of control: 54.9
- Call: inactive

Batf3 (GeneID 381319) #2
- GFP, % of control: 43
- viability (ATP), % of control: 39.2
- Call: inactive

Batf3 (GeneID 381319) #3
- GFP, % of control: 87.6
- viability (ATP), % of control: 103
- Call: inactive

Pklr (GeneID 18770)
- GFP, % of control: 84.5
- viability (ATP), % of control: 79.5
- Call: inactive

Stn1 (GeneID 108689) #1
- GFP, % of control: 44
- viability (ATP), % of control: 36.2
- Call: inactive

Stn1 (GeneID 108689) #2
- GFP, % of control: 63.5
- viability (ATP), % of control: 83.9
- Call: inactive

Stn1 (GeneID 108689) #3
- GFP, % of control: 98.1
- viability (ATP), % of control: 55.8
- Call: inactive

Tgs1 (GeneID 116940) #1
- GFP, % of control: 58.5
- viability (ATP), % of control: 70.4
- Call: inactive

Tgs1 (GeneID 116940) #2
- GFP, % of control: 154
- viability (ATP), % of control: 161
- Call: active

Tgs1 (GeneID 116940) #3
- GFP, % of control: 89.2
- viability (ATP), % of control: 75.9
- Call: inactive

Ttl (GeneID 69737) #1
- GFP, % of control: 41.1
- viability (ATP), % of control: 29.5
- Call: inactive

Ttl (GeneID 69737) #2
- GFP, % of control: 87
- viability (ATP), % of control: 86.1
- Call: inactive

Twist1 (GeneID 22160) #1
- GFP, % of control: 84.4
- viability (ATP), % of control: 136
- Call: inactive

Twist1 (GeneID 22160) #2
- GFP, % of control: 70.6
- viability (ATP), % of control: 83.6
- Call: inactive

Twist1 (GeneID 22160) #3
- GFP, % of control: 76.6
- viability (ATP), % of control: 93.7
- Call: inactive

Rps27a (GeneID 78294) #1
- GFP, % of control: 52.8
- viability (ATP), % of control: 37.3
- Call: inactive

Rps27a (GeneID 78294) #2
- GFP, % of control: 64.5
- viability (ATP), % of control: 35.5
- Call: inactive

Rps27a (GeneID 78294) #3
- GFP, % of control: 49.3
- viability (ATP), % of control: 33.7
- Call: inactive

Epc2 (GeneID 227867) #1
- GFP, % of control: 94.4
- viability (ATP), % of control: 85.4
- Call: inactive

Epc2 (GeneID 227867) #2
- GFP, % of control: 80.1
- viability (ATP), % of control: 43.4
- Call: inactive

Epc2 (GeneID 227867) #3
- GFP, % of control: 32.4
- viability (ATP), % of control: 63.6
- Call: inactive

Gabpb2 (GeneID 213054) #1
- GFP, % of control: 49.2
- viability (ATP), % of control: 66
- Call: inactive

Gabpb2 (GeneID 213054) #2
- GFP, % of control: 61.8
- viability (ATP), % of control: 76.6
- Call: inactive

Gabpb2 (GeneID 213054) #3
- GFP, % of control: 67.8
- viability (ATP), % of control: 88.5
- Call: inactive

Chrna4 (GeneID 11438) #1
- GFP, % of control: 42.5
- viability (ATP), % of control: 56.5
- Call: inactive

Chrna4 (GeneID 11438) #2
- GFP, % of control: 25.8
- viability (ATP), % of control: 48.7
- Call: inactive

Chrna4 (GeneID 11438) #3
- GFP, % of control: 69.4
- viability (ATP), % of control: 81.2
- Call: inactive
